Test results taken from article PMC6063800 (Peptides, 2018).
Where a name gives a salt, the structure may show the parent alone.

System: Staphylococcus epidermidis 1457
Assay: Antibacterial broth microdilution MIC
Assay type: cell-based
Conditions: Staphylococcus epidermidis, 1457, 20 h, read-out: MIC, SE

## CN[C@H](CC(C)C)C(=O)N[C@H]1C(=O)N[C@@H](CC(N)=O)C(=O)N[C@H]2C(=O)N[C@H]3C(=O)N[C@H](C(=O)N[C@H](C(=O)O)c4cc(O)cc(O)c4-c4cc3ccc4O)[C@H](O)c3ccc(c(Cl)c3)Oc3cc2cc(c3O[C@@H]2O[C@H](CO)[C@@H](O)[C@H](O)[C@H]2O[C@H]2C[C@](C)(N)[C@H](O)[C@H](C)O2)Oc2ccc(cc2Cl)[C@H]1O [Vancomycin, vancomycin hydrochloride, reference compound]
  MIC: 1.6 µM
